Data as given in PubChem BioAssay AID1508588 (Peter MacCallum Cancer Centre, 2020).
Screen: 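Knock-downs boosting vemurafenib effects on melanoma cell growth or lactate release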 (primary screen). Cell system: human WM266.4 melanoma cells (BRAF V600 mutant). Reagents: siRNA pool against human genes, 40 nM. Timing: 96 h from transfection to read-out. Challenge: vemurafenib 300 nM (about IC25), added 48 h after transfection, for 48 h; comparison arm got DMSO vehicle only. Measurement: 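Ratios to non-targeting siRNA for cell gain, counted as DAPI nuclei after minus before drug and averaged over two replicates, and for absorbance-read medium lactate per cell; both binned into fold-change classes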. Direction: cell gain with vemurafenib: higher = more cell gain than with non-targeting siRNA; lactate per cell with vemurafenib: higher = more lactate made per cell. Active means: 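a knock-down counts as enhancing when its fold-change classes with vehicle and with vemurafenib, taken together, show a stronger drug effect on cell gain or lactate per cell; exact class pairs not stated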. Meaning of the calls: active = enhances vemurafenib effect; inactive = no enhancement seen.
In all, the deposit lists about 18,000 reagents; below is an unselected part. In the full data, 790 (4.4%) got an active call. 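Calls rest on a combination of fold-change classes in drug and vehicle arms, not all shown here.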 A number with no mark means an inactive call. No sequences are given here.

target gene,cell gain with vemurafenib,lactate per cell with vemurafenib
SARM1 (GeneID 23098),-0.21,2.02
TMEM257 (retired record) (GeneID 9142),0.27,2.53
TSC22D3 (GeneID 1831),0.98,0.82
AP1G2 (GeneID 8906),0.79,0.46
CIMAP3 (GeneID 128344),0.79,0.87
H2AC19 (GeneID 723790),0.73,1.01
AK8 (GeneID 158067),0.6,1.57
ZNF496 (GeneID 84838),0.65,1.17
ZNF829 (GeneID 374899),0.59 (active),0.44
SEMA3G (GeneID 56920),0.54,1.08
EDDM3B (GeneID 64184),0.36,0.7
TMEM209 (GeneID 84928),0.47,1.19
RNF6 (GeneID 6049),1.06,0.87
AK7 (GeneID 122481),0.98,1.09
PITPNB (GeneID 23760),0.59,0.75
ZNF548 (GeneID 147694),0.48,1
SHROOM3 (GeneID 57619),0.44,1.44
ODR4 (GeneID 54953),0.25 (active),0.32
CT83 (GeneID 203413),0.22,1.23
CDY1 (GeneID 9085),0.37,2.29
OTULINL (GeneID 54491),0.69,0.8
TRIO (GeneID 7204),0.59,1.05
H2BC5 (GeneID 3017),0.54,1.02
EXT2 (GeneID 2132),0.79,0.54
LRP3 (GeneID 4037),0.15,2.27
MRPL11 (GeneID 65003),0.56,0.96
APRG1 (GeneID 339883),0.74,0.97
MARK3 (GeneID 4140),0.42,0.96
ZNF536 (GeneID 9745),0.9,1.2
SMAD6 (GeneID 4091),0.17,2.29
SLC18A3 (GeneID 6572),0.55,0.57
HPSE (GeneID 10855),0.6,0.97
GPR88 (GeneID 54112),0.54,0.67
ATG13 (GeneID 9776),0.28,2.58
SHOC1 (GeneID 158401),0.54,0.68
AGPS (GeneID 8540),0.15,2.09
DAZ4 (GeneID 57135),0.36,0.97
HERC2 (GeneID 8924),0.63,0.74
PRAG1 (GeneID 157285),0.46,1.27
TMC7 (GeneID 79905),0.67,0.55
WDSUB1 (GeneID 151525),1.06,0.92
TNFAIP1 (GeneID 7126),0.72,0.88
FYB2 (GeneID 199920),0.61,0.9
ADAM9 (GeneID 8754),1.34,0.3
RNF17 (GeneID 56163),0.69,1.03
FYN (GeneID 2534),0.81,0.94
PDCD10 (GeneID 11235),1.08,0.84
CLIC3 (GeneID 9022),0.32,1.94
TLR5 (GeneID 7100),1.03,0.48
OR8H3 (GeneID 390152),0.68,0.69
BLVRB (GeneID 645),0.65,0.98
KLK7 (GeneID 5650),0.57 (active),0.12
ZBTB11 (GeneID 27107),0.92,0.85
BTBD16 (GeneID 118663),0.75,0.62
DAB2IP (GeneID 153090),0.06,1.89
USP42 (GeneID 84132),0.94,0.66
ZCWPW2 (GeneID 152098),0.68,0.6

Part of the list above, limited to “cell gain with vemurafenib”.
FYB2 (GeneID 199920)	0.61
ADAM9 (GeneID 8754)	1.34
RNF17 (GeneID 56163)	0.69
FYN (GeneID 2534)	0.81
PDCD10 (GeneID 11235)	1.08
CLIC3 (GeneID 9022)	0.32
